# Test results taken from the supplement of paper PMC8728848.
# This is one part of the list.
# How the values were obtained:
# Assay in all cases: glycan array binding signal (z-score within array); higher = stronger binding
# Details in all cases: glycan notation: IUPAC condensed, linker removed
# [1] = target: GlcNAc(a1-4)Gal(b1-4)GalNAc
# Procedure, shortened: (§1)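 Glycan array data came from 3228 arrays in the Consortium for Functional Glycomics database, and only arrays with an available protein sequence were kept. Glycan names were put into IUPAC-condensed notation, and columns mapping to the same glycan were averaged. The binding signal is a within-array Z-score, averaged across arrays of one protein sequence run at different concentrations or buffers and across linkers. A negative Z-score can be read as non-binding.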
# [2] = target: GlcNAc(a1-4)Gal(b1-4)GlcNAc
# Procedure, shortened: as §1
# [3] = target: GlcNAc(a1-4)Gal(b1-4)GlcNAc(b1-3)Gal(b1-4)Glc
# Procedure, shortened: as §1
# [4] = target: GlcNAc(a1-4)Gal(b1-4)GlcNAc(b1-3)Gal(b1-4)GlcNAc
# Procedure, shortened: as §1
# [5] = target: GlcNAc(a1-4)Gal(b1-4)GlcNAc(b1-3)Gal(b1-4)GlcNAc(b1-3)Gal(b1-4)GlcNAc
# Procedure, shortened: as §1
# [6] = target: GlcNAc(a1-4)Gal(b1-4)GlcNAc(b1-3)Gal(b1-4)[Fuc(a1-3)]GlcNAc(b1-3)Gal(b1-4)[Fuc(a1-3)]GlcNAc
# Procedure, shortened: as §1
# [7] = target: GlcNAc(a1-6)Gal(b1-4)GlcNAc
# Procedure, shortened: as §1
# [8] = target: GlcNAc(b1-2)Gal(b1-3)GalNAc
# Procedure, shortened: as §1
# [9] = target: GlcNAc(b1-2)Man(a1-3)[GlcNAc(b1-2)Man(a1-6)]Man(b1-4)GlcNAc(b1-4)GlcNAc
# Procedure, shortened: as §1
# [10] = target: GlcNAc(b1-2)Man(a1-3)[GlcNAc(b1-2)Man(a1-6)]Man(b1-4)GlcNAc(b1-4)[Fuc(a1-6)]GlcNAc
# Procedure, shortened: as §1
# [11] = target: GlcNAc(b1-2)[GlcNAc(b1-4)]Man(a1-3)[GlcNAc(b1-2)Man(a1-6)]Man(b1-4)GlcNAc(b1-4)GlcNAc
# Procedure, shortened: as §1
# [12] = target: GlcNAc(b1-3)Gal
# Procedure, shortened: as §1
# [13] = target: GlcNAc(b1-3)Gal(b1-3)GalNAc
# Procedure, shortened: as §1
# [14] = target: GlcNAc(b1-3)Gal(b1-4)Glc
# Procedure, shortened: as §1
# [15] = target: GlcNAc(b1-3)Gal(b1-4)GlcNAc
# Procedure, shortened: as §1
# [16] = target: GlcNAc(b1-3)Gal(b1-4)GlcNAc(b1-3)Gal(b1-4)GlcNAc
# Procedure, shortened: as §1
# [17] = target: GlcNAc(b1-3)GalNAc
# Procedure, shortened: as §1
# [18] = target: GlcNAc(b1-3)Man
# Procedure, shortened: as §1
# [19] = target: GlcNAc(b1-3)[GlcNAc(b1-4)][GlcNAc(b1-6)]GlcNAc
# Procedure, shortened: as §1
# [20] = target: GlcNAc(b1-3)[GlcNAc(b1-6)]Gal(b1-4)GlcNAc
# Procedure, shortened: as §1
# [21] = target: GlcNAc(b1-3)[GlcNAc(b1-6)]GalNAc
# Procedure, shortened: as §1
# [22] = target: GlcNAc(b1-4)Gal(b1-4)GlcNAc
# Procedure, shortened: as §1
# [23] = target: GlcNAc(b1-4)GlcNAc
# Procedure, shortened: as §1
# [24] = target: GlcNAc(b1-4)GlcNAc(b1-4)GlcNAc
# Procedure, shortened: as §1
# [25] = target: GlcNAc(b1-4)GlcNAc(b1-4)GlcNAc(b1-4)GlcNAc(b1-4)GlcNAc
# Procedure, shortened: as §1
# [26] = target: GlcNAc(b1-4)GlcNAc(b1-4)GlcNAc(b1-4)GlcNAc(b1-4)GlcNAc(b1-4)GlcNAc
# Procedure, shortened: as §1
# [27] = target: GlcNAc(b1-4)[GlcNAc(b1-6)]GalNAc
# Procedure, shortened: as §1
# [28] = target: GlcNAc(b1-6)Gal(b1-4)GlcNAc
# Procedure, shortened: as §1
# [29] = target: GlcNAc(b1-6)GalNAc
# Procedure, shortened: as §1
# [30] = target: GlcNAc3Prop(b1-4)GlcNAc
# Procedure, shortened: as §1
# [31] = target: GlcNAc6S(b1-3)Gal(b1-4)GlcNAc
# Procedure, shortened: as §1
# [32] = target: Kdn(a2-3)Gal(b1-3)GalNAc
# Procedure, shortened: as §1
# [33] = target: Kdn(a2-3)Gal(b1-3)GlcNAc
# Procedure, shortened: as §1
# [34] = target: Kdn(a2-3)Gal(b1-4)Glc
# Procedure, shortened: as §1
# [35] = target: Kdn(a2-3)Gal(b1-4)GlcNAc
# Procedure, shortened: as §1
# [36] = target: Kdn(a2-3)Gal(b1-4)[Fuc(a1-3)]GlcNAc
# Procedure, shortened: as §1
# [37] = target: Kdn(a2-6)Gal(b1-4)GlcNAc
# Procedure, shortened: as §1
# [38] = target: Man(a1-2)Man(a1-2)Man(a1-3)Man
# Procedure, shortened: as §1
# [39] = target: Man(a1-2)Man(a1-2)Man(a1-6)[Man(a1-3)]Man
# Procedure, shortened: as §1
# [40] = target: Man(a1-2)Man(a1-3)Man
# Procedure, shortened: as §1
# [41] = target: Man(a1-2)Man(a1-3)[Man(a1-2)Man(a1-6)]Man
# Procedure, shortened: as §1
# [42] = target: Man(a1-2)Man(a1-3)[Man(a1-2)Man(a1-6)]Man(a1-6)[Man(a1-2)Man(a1-2)Man(a1-3)]Man
# Procedure, shortened: as §1
# [43] = target: Man(a1-2)Man(a1-3)[Man(a1-2)Man(a1-6)]Man(a1-6)[Man(a1-2)Man(a1-2)Man(a1-3)]Man(b1-4)GlcNAc(b1-4)GlcNAc
# Procedure, shortened: as §1
# [44] = target: Man(a1-2)Man(a1-3)[Man(a1-6)]Man(a1-6)[Man(a1-2)Man(a1-3)]Man(b1-4)GlcNAc(b1-4)GlcNAc
# Procedure, shortened: as §1
# [45] = target: Man(a1-2)Man(a1-6)[Man(a1-3)]Man(a1-6)[Man(a1-2)Man(a1-2)Man(a1-3)]Man
# Procedure, shortened: as §1
# [46] = target: Man(a1-2)Man(a1-6)[Man(a1-3)]Man(a1-6)[Man(a1-2)Man(a1-2)Man(a1-3)]Man(b1-4)GlcNAc(b1-4)GlcNAc
# Procedure, shortened: as §1
# [47] = target: Man(a1-3)[Man(a1-6)]Man
# Procedure, shortened: as §1
# [48] = target: Man(a1-3)[Man(a1-6)]Man(a1-6)[Man(a1-2)Man(a1-3)]Man(b1-4)GlcNAc(b1-4)GlcNAc
# Procedure, shortened: as §1
# [49] = target: Man(a1-3)[Man(a1-6)]Man(a1-6)[Man(a1-3)]Man
# Procedure, shortened: as §1
# [50] = target: Man(a1-3)[Man(a1-6)]Man(a1-6)[Man(a1-3)]Man(b1-4)GlcNAc(b1-4)GlcNAc
# Procedure, shortened: as §1
# [51] = target: Man(a1-3)[Man(a1-6)]Man(b1-4)GlcNAc(b1-4)GlcNAc
# Procedure, shortened: as §1
# [52] = target: Man(a1-6)Man
# Procedure, shortened: as §1
# [53] = target: Man(b1-4)GlcNAc
# Procedure, shortened: as §1
# [54] = target: Neu5Ac(a2-3)Gal
# Procedure, shortened: as §1
# [55] = target: Neu5Ac(a2-3)Gal(b1-3)GalNAc
# Procedure, shortened: as §1
# [56] = target: Neu5Ac(a2-3)Gal(b1-3)GalNAc(b1-3)Gal(a1-4)Gal(b1-4)Glc
# Procedure, shortened: as §1
# [57] = target: Neu5Ac(a2-3)Gal(b1-3)GalNAc(b1-4)[Neu5Ac(a2-3)]Gal(b1-4)Glc
# Procedure, shortened: as §1
# [58] = target: Neu5Ac(a2-3)Gal(b1-3)GalNAc6S
# Procedure, shortened: as §1
# [59] = target: Neu5Ac(a2-3)Gal(b1-3)GlcNAc
# Procedure, shortened: as §1
# [60] = target: Neu5Ac(a2-3)Gal(b1-3)GlcNAc(b1-2)Man(a1-3)[Neu5Ac(a2-3)Gal(b1-3)GlcNAc(b1-2)Man(a1-6)]Man(b1-4)GlcNAc(b1-4)GlcNAc
# Procedure, shortened: as §1
binder,measurement,setting,value
"LERP (Drosophila melanogaster), B7Z0Q8 (protein) MRCSLQKDCAAPTQENFRQMRFPIVISLLLLLFCSGESVAADAANQLKFSTTECKLKEPIYGSTFDFSGLHSDLAHVVKSMNIGGDQFEFNICGNLSRTCNGESNVAACLKRQGKEYILGRQHELFYNNGNMFLKYKSGAKCDNGTADKPNYQLHVMFSCDYTLDAQPMHVTPYANEVCSFYISYRTPLACLSIPEGLQSNSCRVGDTKSNGTFDLMPLSDSNYHTSNRQGAFFVINVCKPVLYGENSMCPAGSSVCLFDSKATNPKERFINFGNVQTHPVVEKGQLLLRHESPTPCAKNSSANYTSVIYFSCDKFIRNAHPEFAGLGADSCTYQFNFATPLACNDLKPCTAFTSTNELLDLSSLSSKPARTLLKDGKNYTIAVCAHAGAPCQENGGACYEQNSTTISLGNSNSQLRFNQTGSLYLLYEDGAECSTATGMRRWSTKIEFVCANNATKDNGASTAGGSDSLKIIEDSNCQLLIQYQTPLACREPIRCKATTYVDHTNDGLGSSGDELIDLTPLISATDNYEARVELPASMEHLVPKTTKFFLNVCRPLVPKYQLGCAGGSAACMAKVTAAGAPEEERSMGFPLVSLTQRNRTFAELAYLKGDPCPTDNTSELSTHILFNCNMRAGRGQPVLRSVEDCAYRFEWETNVFCPPHECTFSADTCDLVHDELGRRFNFKSAPFTKDGKIEIDYNATKMSVNICGAHRKAMTDYSQALVNIFFTHESPNCGREGTMNVQIRLICSDQTESSSTISSDQQCNLLYVQRTPSICEFLSLGATQQNFESNGSTSSSTSSSSTSTTTSTTTQASPAGKPTKAATSTTTTTVGPDPAATPIGPTASVGTILGAILSVTFCVTCLGLLAFSPARRQRIRRLFRRSNSAVRYSRVQSNEEANLLLEPNGEFTESDDDMLL",glycan array binding signal (z-score),[1],0.393
same,glycan array binding signal (z-score),[2],-1.06
same,glycan array binding signal (z-score),[3],-0.791
same,glycan array binding signal (z-score),[4],-0.396
same,glycan array binding signal (z-score),[5],-0.742
same,glycan array binding signal (z-score),[6],3.64
same,glycan array binding signal (z-score),[7],-0.627
same,glycan array binding signal (z-score),[8],-0.531
same,glycan array binding signal (z-score),[9],0.327
same,glycan array binding signal (z-score),[10],6.93
same,glycan array binding signal (z-score),[11],-0.732
same,glycan array binding signal (z-score),[12],-1.15
same,glycan array binding signal (z-score),[13],-0.66
same,glycan array binding signal (z-score),[14],0.761
same,glycan array binding signal (z-score),[15],-0.94
same,glycan array binding signal (z-score),[16],-0.08
same,glycan array binding signal (z-score),[17],-0.372
same,glycan array binding signal (z-score),[18],-0.423
same,glycan array binding signal (z-score),[19],0.739
same,glycan array binding signal (z-score),[20],-0.741
same,glycan array binding signal (z-score),[21],-0.07
same,glycan array binding signal (z-score),[22],-0.229
same,glycan array binding signal (z-score),[23],-0.456
same,glycan array binding signal (z-score),[24],-0.554
same,glycan array binding signal (z-score),[25],-0.437
same,glycan array binding signal (z-score),[26],-0.524
same,glycan array binding signal (z-score),[27],0.075
same,glycan array binding signal (z-score),[28],0.523
same,glycan array binding signal (z-score),[29],-0.122
same,glycan array binding signal (z-score),[30],-0.064
same,glycan array binding signal (z-score),[31],0.193
same,glycan array binding signal (z-score),[32],-0.203
same,glycan array binding signal (z-score),[33],-0.084
same,glycan array binding signal (z-score),[34],0.317
same,glycan array binding signal (z-score),[35],-0.819
same,glycan array binding signal (z-score),[36],-0.158
same,glycan array binding signal (z-score),[37],-0.144
same,glycan array binding signal (z-score),[38],5.38
same,glycan array binding signal (z-score),[39],-0.549
same,glycan array binding signal (z-score),[40],-0.182
same,glycan array binding signal (z-score),[41],-0.358
same,glycan array binding signal (z-score),[42],-0.61
same,glycan array binding signal (z-score),[43],-0.353
same,glycan array binding signal (z-score),[44],-0.137
same,glycan array binding signal (z-score),[45],-0.378
same,glycan array binding signal (z-score),[46],-0.533
same,glycan array binding signal (z-score),[47],-0.079
same,glycan array binding signal (z-score),[48],-0.031
same,glycan array binding signal (z-score),[49],-0.364
same,glycan array binding signal (z-score),[50],-0.593
same,glycan array binding signal (z-score),[51],2.66
same,glycan array binding signal (z-score),[52],-0.091
same,glycan array binding signal (z-score),[53],0.006
same,glycan array binding signal (z-score),[54],-0.653
same,glycan array binding signal (z-score),[55],0.949
same,glycan array binding signal (z-score),[56],-0.045
same,glycan array binding signal (z-score),[57],-0.493
same,glycan array binding signal (z-score),[58],-0.584
same,glycan array binding signal (z-score),[59],2.14
same,glycan array binding signal (z-score),[60],-0.331

# An excerpt of these results, with bars between the fields.
binder | measurement | setting | value
LERP (Drosophila melanogaster), B7Z0Q8 (protein) MRCSLQKDCAAPTQENFRQMRFPIVISLLLLLFCSGESVAADAANQLKFSTTECKLKEPIYGSTFDFSGLHSDLAHVVKSMNIGGDQFEFNICGNLSRTCNGESNVAACLKRQGKEYILGRQHELFYNNGNMFLKYKSGAKCDNGTADKPNYQLHVMFSCDYTLDAQPMHVTPYANEVCSFYISYRTPLACLSIPEGLQSNSCRVGDTKSNGTFDLMPLSDSNYHTSNRQGAFFVINVCKPVLYGENSMCPAGSSVCLFDSKATNPKERFINFGNVQTHPVVEKGQLLLRHESPTPCAKNSSANYTSVIYFSCDKFIRNAHPEFAGLGADSCTYQFNFATPLACNDLKPCTAFTSTNELLDLSSLSSKPARTLLKDGKNYTIAVCAHAGAPCQENGGACYEQNSTTISLGNSNSQLRFNQTGSLYLLYEDGAECSTATGMRRWSTKIEFVCANNATKDNGASTAGGSDSLKIIEDSNCQLLIQYQTPLACREPIRCKATTYVDHTNDGLGSSGDELIDLTPLISATDNYEARVELPASMEHLVPKTTKFFLNVCRPLVPKYQLGCAGGSAACMAKVTAAGAPEEERSMGFPLVSLTQRNRTFAELAYLKGDPCPTDNTSELSTHILFNCNMRAGRGQPVLRSVEDCAYRFEWETNVFCPPHECTFSADTCDLVHDELGRRFNFKSAPFTKDGKIEIDYNATKMSVNICGAHRKAMTDYSQALVNIFFTHESPNCGREGTMNVQIRLICSDQTESSSTISSDQQCNLLYVQRTPSICEFLSLGATQQNFESNGSTSSSTSSSSTSTTTSTTTQASPAGKPTKAATSTTTTTVGPDPAATPIGPTASVGTILGAILSVTFCVTCLGLLAFSPARRQRIRRLFRRSNSAVRYSRVQSNEEANLLLEPNGEFTESDDDMLL | glycan array binding signal (z-score) | [57] | -0.493
same | glycan array binding signal (z-score) | [58] | -0.584
same | glycan array binding signal (z-score) | [59] | 2.14
